The values below come from publication PMC3050841.

Chains of the proteins cited; added tags and fusions are not shown. Lines headed by an entry give the natural chain unless they say otherwise; changes in a name come on top.
UniProt P12814: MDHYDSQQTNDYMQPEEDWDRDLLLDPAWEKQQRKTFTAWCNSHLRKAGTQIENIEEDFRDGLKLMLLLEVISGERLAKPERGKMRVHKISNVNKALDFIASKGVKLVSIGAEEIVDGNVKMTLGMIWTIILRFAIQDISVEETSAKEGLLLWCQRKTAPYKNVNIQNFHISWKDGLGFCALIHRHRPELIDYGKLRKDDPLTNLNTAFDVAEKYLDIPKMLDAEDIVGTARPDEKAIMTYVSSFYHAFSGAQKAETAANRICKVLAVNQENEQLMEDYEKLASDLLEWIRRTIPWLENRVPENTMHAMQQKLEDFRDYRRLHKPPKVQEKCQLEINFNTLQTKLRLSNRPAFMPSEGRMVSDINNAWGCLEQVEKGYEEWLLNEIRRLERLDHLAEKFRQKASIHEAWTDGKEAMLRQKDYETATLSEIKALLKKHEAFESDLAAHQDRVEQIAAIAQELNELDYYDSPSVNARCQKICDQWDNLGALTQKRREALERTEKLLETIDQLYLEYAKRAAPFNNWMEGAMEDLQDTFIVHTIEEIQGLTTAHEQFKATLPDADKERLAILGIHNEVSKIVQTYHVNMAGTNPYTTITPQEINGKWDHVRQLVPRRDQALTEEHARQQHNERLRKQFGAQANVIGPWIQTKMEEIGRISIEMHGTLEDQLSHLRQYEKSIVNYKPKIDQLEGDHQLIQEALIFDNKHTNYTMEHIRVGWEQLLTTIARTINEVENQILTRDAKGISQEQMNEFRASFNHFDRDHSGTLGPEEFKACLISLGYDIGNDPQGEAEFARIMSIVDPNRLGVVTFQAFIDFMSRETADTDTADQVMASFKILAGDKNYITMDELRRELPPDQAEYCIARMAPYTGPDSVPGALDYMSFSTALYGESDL
UniProt P05556: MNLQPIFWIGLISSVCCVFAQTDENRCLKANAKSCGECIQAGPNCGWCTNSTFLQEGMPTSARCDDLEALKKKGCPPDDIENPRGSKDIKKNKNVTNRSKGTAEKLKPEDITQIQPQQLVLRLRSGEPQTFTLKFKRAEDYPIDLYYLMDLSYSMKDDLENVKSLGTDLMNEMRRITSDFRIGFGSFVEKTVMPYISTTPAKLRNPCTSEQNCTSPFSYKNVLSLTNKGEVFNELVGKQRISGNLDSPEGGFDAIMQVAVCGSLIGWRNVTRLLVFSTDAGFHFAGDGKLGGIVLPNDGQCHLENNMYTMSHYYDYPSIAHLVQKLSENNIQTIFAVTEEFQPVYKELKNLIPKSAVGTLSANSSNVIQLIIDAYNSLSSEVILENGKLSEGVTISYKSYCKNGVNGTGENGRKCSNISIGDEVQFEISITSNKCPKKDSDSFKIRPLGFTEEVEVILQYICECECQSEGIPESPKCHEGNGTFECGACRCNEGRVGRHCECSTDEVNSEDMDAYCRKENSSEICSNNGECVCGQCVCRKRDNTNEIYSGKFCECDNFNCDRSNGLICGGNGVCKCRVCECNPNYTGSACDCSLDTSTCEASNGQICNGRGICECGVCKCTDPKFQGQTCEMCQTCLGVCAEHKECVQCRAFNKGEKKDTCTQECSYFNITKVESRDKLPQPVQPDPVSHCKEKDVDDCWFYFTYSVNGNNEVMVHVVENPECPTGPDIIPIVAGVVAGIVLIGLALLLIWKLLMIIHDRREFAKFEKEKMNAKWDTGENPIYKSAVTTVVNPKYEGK

No constants are given. Whether binding was seen depends on the method and setting. For some of these results: Binding seen in cells or lysates may run through a third protein. Some results given as binding are weak or reduced against the parent protein; the word gives no strength.

For test [1], the target named is T1, HAMLET (Human Alpha-lactalbumin Made LEthal to Tumor cells) (human) (UniProt P00709).
T1 sequence: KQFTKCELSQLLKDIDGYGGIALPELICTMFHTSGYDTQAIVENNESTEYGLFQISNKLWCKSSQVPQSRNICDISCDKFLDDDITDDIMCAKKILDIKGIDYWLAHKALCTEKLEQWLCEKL
Nature of the test: co-IP; A549 cells treated with HAMLET (15 minutes, 35 µM), NP-40 lysis buffer; precipitation with anti-α-lactalbumin antibodies and Protein G-Sepharose, 4°C overnight; blots for α-actinin-4 and α-actinin-1.

Test [2] has as its target α-actinin-4 (human) (UniProt O43707). Nature of the test: co-IP; total extracts of adherent A549 cells, untreated or HAMLET-treated (35 µM, 3 hours), Brij 96 lysis buffer; precipitation with anti-α-actinin-4 antibodies; blot for β1 integrin.
The target is the same in test [3]. The test is described as follows: far-Western, overlay or dot blot; A549 membrane fraction (10 µg) separated by SDS-PAGE and blotted onto PVDF; overlaid overnight with 142 µM HAMLET in NN8 buffer pH 8.7; bound HAMLET detected with anti-bovine α-lactalbumin antibodies; band identified by MALDI-TOF; only the binder purified.

As to α-actinin-1 (from UniProt P12814 1-892), the binding entry in test [1] was “binds”. On the same count and under the same terms, in the case of α-actinin-4 (from UniProt O43707 1-911) it was “binds”. Consider “β1 integrin (from UniProt P05556 21-798) (receptor)”, for which the binding entry with α-actinin-4 (human) [2] is “binds”.

B1: HAMLET (Human Alpha-lactalbumin Made LEthal to Tumor cells) (protein, UniProt P00709 20-142)
chain: T1 sequence
On to B1, for which the binding entry with α-actinin-4 (human) [3] is listed as “binds”.
